PubChem BioAssay AID504786, Drosophila RNAi Screening Center | 2011

Aim: 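Knock-downs reducing HIF reporter induction by the iron chelator DFO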 (primary screen)
Cells: Drosophila S2 cells with a stable HIF luciferase reporter
Reagent: long dsRNA against Drosophila genes, about 0.2 µg dsRNA per well of a 384-well plate
Duration: three days of knock-down, then 20 h of DFO before reading
Treatment: desferrioxamine (DFO) at 100 µM, an iron chelator that mimics hypoxia, for 20 h
Measurement: 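HIF reporter luminescence in cells given 100 µM DFO for 20 h, using the mouse ldh-a hypoxia-response element, scored as per-plate z-scores; higher means greater loss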
Scale: z-score: higher = stronger loss of HIF reporter signal
The deposit covers about 21,000 reagents; below is a random part of those that have a named target and a result. 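Primary screen; positive scores mean lost reporter signal, so the sign may be inverted from the usual convention.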 Reagents against one gene are numbered here. Names joined by + are all predicted targets of the reagent. Reagent sequences are not shown.

| target | reagent no. | z-score, replicate 1 | z-score, replicate 2 | z-score, replicate 3 | z-score, replicate 4 |
| --- | --- | --- | --- | --- | --- |
| Cpsf160 (Cleavage and polyadenylation specificity factor 160) | 1 | 1.1 | 0.6 | – | – |
| CG31445 | 1 | -0.3 | -0.2 | – | – |
| CG32409 | 1 | -0.3 | -0.4 | 0 | -0.1 |
| CG11786 | 1 | -0.4 | -0.6 | – | – |
| CG6067 | 1 | -0.3 | -0.2 | – | – |
| St3 (Sulfotransferase 3) | 1 | -0.3 | -0.3 | – | – |
| CG30127 (retired record) | 1 | 0.1 | -0.2 | – | – |
| CG30127 (retired record) | 2 | 2.6 | 1.5 | – | – |
| CG11964 | 1 | -0.3 | -0.7 | – | – |
| Prps (Phosphoribosyl pyrophosphate synthetase) | 1 | 1.4 | 1.7 | – | – |
| Prps (Phosphoribosyl pyrophosphate synthetase) | 2 | 0.5 | 1.1 | – | – |
| Prps (Phosphoribosyl pyrophosphate synthetase) | 3 | 0.2 | 0.6 | – | – |
| CG5541 | 1 | -0.2 | -0.8 | – | – |
| dbo (diablo) | 1 | -0.2 | -0.4 | – | – |
| CG10949 | 1 | 0 | -0.2 | – | – |
| CG18258 | 1 | -0.4 | 0.2 | – | – |
| CG15599 | 1 | -0.4 | 0.1 | – | – |
| emc (extra macrochaetae) | 1 | 1 | 0.7 | – | – |
| CG34045 | 1 | 0.1 | 0.1 | – | – |
| CG13540 | 1 | -0.3 | 0.1 | – | – |
| ND-20L (NADH dehydrogenase (ubiquinone) 20 kDa subunit-like) | 1 | -0.4 | -0.1 | – | – |
| CG3982 | 1 | 2.8 | 1.3 | – | – |
| CG4661 | 1 | -0.2 | 0.7 | – | – |
| CG30431 | 1 | -0.4 | -0.3 | – | – |
| CG30431 | 2 | -0.1 | -0.5 | – | – |
| CG18269 | 1 | -0.4 | -0.6 | – | – |
| Dop1R2 (Dopamine 1-like receptor 2) | 1 | -0.2 | 0 | – | – |
| Dop1R2 (Dopamine 1-like receptor 2) | 2 | -0.1 | -0.2 | – | – |
| Mmp2 (Matrix metalloproteinase 2) | 1 | -0.4 | -0.5 | – | – |
| lectin-37Db | 1 | -0.3 | -0.5 | – | – |
| CG13728 | 1 | -0.2 | -0.2 | – | – |
| ple (pale) | 1 | -0.3 | -0.1 | – | – |
| CG17575 | 1 | -0.3 | -0.5 | – | – |
| CG13658 | 1 | -0.3 | -0.2 | – | – |
| CG10038 | 1 | -0.4 | -0.3 | – | – |
| Tmem63 (Transmembrane protein 63) | 1 | -0.3 | 0 | – | – |
| Zasp66 (Z band alternatively spliced PDZ-motif protein 66) | 1 | -0.4 | 0.6 | – | – |
| Zasp66 (Z band alternatively spliced PDZ-motif protein 66) | 2 | -0.2 | -0.3 | – | – |
| Zasp66 (Z band alternatively spliced PDZ-motif protein 66) | 3 | -0.3 | -0.3 | – | – |
| CheA87a (Chemosensory protein A 87a) | 1 | -0.3 | -0.3 | – | – |
| CG14868 | 1 | -0.5 | -0.3 | – | – |
| wbl (windbeutel) | 1 | -0.2 | 0.2 | – | – |
| CG5790 | 1 | -0.3 | -0.7 | – | – |
| achi (achintya) | 1 | -0.4 | -0.5 | – | – |
| Mos (Mos oncogene) | 1 | -0.3 | -0.1 | – | – |
| Fpps (Farnesyl pyrophosphate synthase) | 1 | -0.2 | -0.1 | – | – |
| sti (sticky) | 1 | -0.3 | -0.2 | – | – |
| sti (sticky) | 2 | -0.1 | 0.1 | – | – |
| CG13516 | 1 | -0.2 | -0.3 | – | – |
| CG1172 | 1 | -0.4 | -0.6 | – | – |
| Gabat (gamma-aminobutyric acid transaminase) | 1 | -0.3 | -0.3 | – | – |
| CG10516 | 1 | -0.2 | -0.2 | – | – |
| alphaKap4 (alpha Karyopherin-4) | 1 | -0.4 | -0.4 | – | – |
| Ir85a (Ionotropic receptor 85a) | 1 | -0.3 | -0.7 | – | – |
| CG30183 | 1 | -0.2 | 0 | – | – |
| CG30183 | 2 | -0.1 | -0.1 | – | – |
| Inx5 (Innexin 5) | 1 | -0.3 | 0 | – | – |
| CG7201 | 1 | -0.2 | 0.3 | – | – |
| CG13606 | 1 | -0.4 | 0 | – | – |
| p (pink) | 1 | -0.3 | 0.5 | – | – |
| Gs1 (Glutamine synthetase 1) | 1 | -0.3 | -0.1 | – | – |
| Pvf1 (PDGF- and VEGF-related factor 1) | 1 | -0.3 | -0.2 | – | – |
| Lkr (Leucokinin receptor) | 1 | 0.1 | -0.5 | – | – |
| rin (rasputin) | 1 | -0.4 | -1.3 | – | – |
| CG2209 | 1 | -0.1 | 0.8 | – | – |
| Ih (I[[h]] channel) | 1 | -0.4 | -0.5 | – | – |
| CG9029 | 1 | -0.3 | -0.1 | – | – |
| RASSF8 (Ras association domain family member 8) | 1 | -0.3 | -0.3 | – | – |
| CG8435 | 1 | -0.1 | 0.3 | – | – |
| Hsp83 (Heat shock protein 83) | 1 | 2.2 | 2.7 | – | – |
| CG13022 | 1 | -0.2 | -0.4 | – | – |
| GLaz (Glial Lazarillo) | 1 | 0 | 0.5 | – | – |
| TBC1D16 (TBC1 domain family member 16) | 1 | 0 | 0.3 | – | – |
| Rcc1 (Regulator of chromosome condensation 1) | 1 | -0.3 | -0.2 | – | – |
| px (plexus) | 1 | -0.2 | -1 | – | – |
| CG30058 + CG34235 + CG34312 | 1 | -0.1 | 0 | – | – |
| CG12551 (retired record) | 1 | -0.3 | -0.8 | – | – |
| CG12551 (retired record) | 2 | -0.1 | -0.2 | – | – |
| Atac2 (Ada2a-containing complex component 2) | 1 | -0.3 | -0.3 | – | – |
| CG12729 | 1 | -0.2 | -0.6 | – | – |
| fd96Cb (forkhead domain 96Cb) | 1 | -0.1 | 0 | – | – |
| CG11035 | 1 | -0.4 | -0.4 | – | – |
| CG13436 | 1 | -0.3 | -0.6 | – | – |
